# Reference: PubChem BioAssay AID1487 (National Center for Advancing Translational Sciences (NCATS), 2009)
# This is one part of the list. Further columns of the screen follow, without active or inactive calls. Compounds called inactive in the main read-out are mostly missing here. Words in brackets tell the shape of the fitted curve; partial curves, single points and poor fits give uncertain potencies.
# Assay: qHTS Assay for Modulators of Lamin A Splicing
# Details: HeLa LMNA splicing GFP/RFP minigene ratio, 48 h
# Summary of the method: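 Read-out is the ratio of GFP to DsRed2 object intensity, acquired by 488 nm laser-scanning cytometry on HeLa lamin A-EGFP minigene reporter cells. Compound incubation 48 hrs at 37 °C in Opti-MEM with 2% FBS; DMSO 0.5% final.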
# [1] = measured here: GFP splicing reporter channel
# [2] = measured here: RFP viability control channel
SMILES,AC50 [1],AC50 [2]
CC(C)(C)C(=O)Nc1ccc2nc(SCC(=O)N3CCCC3)sc2c1,"0.00794 µM [rising, full curve, poor fit]",–
Brc1ccc2nc(N3CCCC3)sc2c1,"1.12 µM [rising, full curve]",–
O=C(NCCc1c[nH]c2ccccc12)C(=O)NCC1OCCN1S(=O)(=O)c1ccc(F)cc1 (configuration not stated),–,"25.1 µM [rising, single point]"
CC(C)Oc1ccc(CNC(=O)c2ccc(NC(=O)c3nsc4ccccc34)cc2)cc1,"0.562 µM [rising, full curve, poor fit]",–
Cc1cc(NS(=O)(=O)c2ccc(NC(=O)c3ccoc3C)cc2)nc(C)n1,–,"35.5 µM [falling, single point]"
CC1CN(Cc2cnc(Cl)s2)CC(C)O1 (configuration not stated),–,"0.794 µM [rising, full curve, poor fit]"
CCN(CCCNC(=O)c1cc2cc3cc(C)ccc3nc2s1)c1cccc(C)c1,"35.5 µM [falling, single point]",–
NCC1CCC(C(=O)Oc2ccc(CCC(=O)O)cc2)CC1 (configuration not stated),"0.02 µM [falling, full curve, poor fit]","12.6 µM [rising, single point]"
CC(=O)Oc1ccc(Cl)cc1/C=C/c1ccc2ccccc2n1,–,"0.447 µM [rising, partial curve, poor fit]"
CCC(NC(=O)CCl)c1ccc(C)cc1 (configuration not stated),"35.5 µM [rising, single point]","0.0126 µM [rising, full curve, poor fit]"
COC(=O)c1ccc(CN(c2ccccc2OC)S(=O)(=O)c2cccs2)o1,"28.2 µM [rising, single point]","25.1 µM [rising, single point]"
Cc1nc(-c2ccccc2)sc1CCNC(=O)c1ccco1,"2.24 µM [falling, full curve, poor fit]","3.98 µM [falling, full curve]"
CCCCC(=O)Nc1ncc([N+](=O)[O-])s1,–,"3.16 µM [rising, single point]"
Cc1nnc(SCc2cccc([N+](=O)[O-])c2)s1,–,"0.00447 µM [falling, full curve, poor fit]"
CCOC(=O)C1=C(C)C2C3C(=O)N(c4cc(C)ccc4C)C(=O)C3C1(C)C1C(=O)N(c3cc(C)ccc3C)C(=O)C21 (configuration not stated),–,"11.2 µM [rising, single point]"
COc1ccccc1NC(=O)CN1CCSc2ccccc21,–,"0.631 µM [falling, full curve, poor fit]"
COc1ccc2c(c1)CCc1c(C(=O)NCc3cccnc3)noc1-2,–,"7.08 µM [rising, partial curve]"
O=C(Nc1ccc(Cl)c(Cl)c1)Nc1ccc(Br)cc1F,–,"22.4 µM [rising, single point]"
O=C(CSc1cccc[n+]1[O-])C12CC3CC(CC(C3)C1)C2,–,"20 µM [rising, single point]"
Cn1c(=O)c(C(=O)COC(=O)c2cc(-c3ccco3)nc3ccccc23)c(N)n(CC2CC2)c1=O,–,"12.6 µM [rising, single point]"

SMILES,AC50 [1],AC50 [2]
CCCn1c(=O)c(/C(N)=N/O)nn(-c2cccc(C(F)(F)F)c2)c1=O,"2 µM [rising, partial curve]",–
CCOc1ccc(OCC)c(NC(=O)CCn2cccc2)c1,–,"31.6 µM [rising, single point]"
CC(C)/C=C1\CC/C(=C\c2ccc(N(C)C)cc2)C1=O,–,"28.2 µM [rising, single point]"
COc1ccccc1C(=O)NNC(=O)c1ccc(Cl)cc1,"14.1 µM [falling, partial curve, poor fit]","7.94 µM [falling, partial curve, poor fit]"
COC(=O)/C=C/C(=O)N1CCN(c2cccc(Cl)c2)CC1,"0.1 µM [falling, partial curve, poor fit]",–
NC(=O)N/N=C/c1ccc([N+](=O)[O-])o1,–,"0.0112 µM [rising, full curve, poor fit]"
CCOc1c(Cl)cc(CNCc2ccncc2)cc1OC,"0.0282 µM [falling, full curve, poor fit]",–
CN(C)S(=O)(=O)c1cc(C(=O)NCc2ccccc2)c(Cl)cc1Cl,"11.2 µM [falling, partial curve]",–
O=C(CSc1nccn1-c1ccc(Cl)cc1)Nc1nc2ccccc2s1,"1.58 µM [falling, partial curve]",–
c1ccc2c(N3CCCCCC3)nc(-c3ccncc3)nc2c1,"25.1 µM [rising, single point]","25.1 µM [rising, single point]"
CCOc1ccc(/C=C2\SC(=S)N(Nc3ccccc3)C2=O)cc1OC,–,"0.0562 µM [rising, full curve, poor fit]"
CC(=O)Cc1nsc(NC(=O)c2ccc(-c3ccccc3Cl)o2)n1,–,"20 µM [rising, single point]"
O=C(Nc1cccc([N+](=O)[O-])c1)Nc1ccc2c(c1)OCCO2,–,"3.98 µM [falling, full curve, poor fit]"
COc1ccc(-c2nc(SC(CC(=O)NCc3ccccc3)c3ccc(OC)c(OC)c3)n[nH]2)cc1 (configuration not stated),–,"3.16 µM [rising, partial curve, poor fit]"
Clc1cccc(-c2cc3nc4c(c(N5CCOCC5)n3n2)CCCC4)c1,–,"35.5 µM [rising, single point]"
C=CCNC(=S)N1CCN(c2cccc(C(F)(F)F)c2)CC1,–,"31.6 µM [rising, single point]"
Cc1ccc2nc(/C(C#N)=C/c3cn[nH]c3-c3ccc(F)cc3)[nH]c2c1,"35.5 µM [falling, single point]","35.5 µM [falling, single point]"
Cc1ccc(S(=O)(=O)NC(C)C(=O)Nc2ccccc2C(=O)N2CCCC2)cc1 (configuration not stated),–,"0.2 µM [rising, full curve, poor fit]"
CCc1ccc(CN2CCN(C(=O)c3cccc(OC)c3OC)CC2)cc1,–,"7.94 µM [rising, partial curve]"
Cc1cc(C)cc(NC(=O)COc2ccc3c(C)c(Cc4ccccc4)c(=O)oc3c2)c1,"5.01 µM [rising, partial curve]","5.62 µM [rising, full curve]"

# 3 entries from above, set out differently:
SMILES	AC50 [1]	AC50 [2]
CCCn1c(=O)c(/C(N)=N/O)nn(-c2cccc(C(F)(F)F)c2)c1=O	2 µM [rising, partial curve]	–
CCOc1ccc(OCC)c(NC(=O)CCn2cccc2)c1	–	31.6 µM [rising, single point]
CC(C)/C=C1\CC/C(=C\c2ccc(N(C)C)cc2)C1=O	–	28.2 µM [rising, single point]

# The list goes on.

SMILES,AC50 [1],AC50 [2]
O=C(N1CCCCC1)C1(c2ccccc2)CCOCC1,–,"4.47 µM [falling, partial curve, poor fit]"
O=C(Nc1c(Cl)cccc1Cl)c1ccc(-c2ccccc2)cc1,–,"11.2 µM [falling, partial curve]"
OCCN1CCN(c2nc3ccccc3nc2-c2ccccc2)CC1,"35.5 µM [falling, single point]",–
O=C(Nn1c(-c2ccc(Br)cc2)nc2ccccc2c1=O)c1ccc([N+](=O)[O-])cc1,–,"11.2 µM [rising, partial curve]"
COc1ccc(-c2ccc(NS(=O)(=O)c3ccc(F)c(C(F)(F)F)c3)cc2)nn1,"0.0501 µM [falling, full curve, poor fit]","0.316 µM [falling, full curve, poor fit]"
CN1CCN(S(=O)(=O)c2ccc(NC(=O)c3cccc(S(=O)(=O)N4CCCC4)c3)cc2)CC1,"14.1 µM [rising, single point]","31.6 µM [rising, single point]"
N=c1n(Cc2ccc(Cl)cc2)c2ccccc2n1CC(O)COc1ccccc1 (configuration not stated),"17.8 µM [falling, partial curve]","20 µM [falling, partial curve, poor fit]"
CC1C(=O)NN=C1C(=O)N/N=C/c1ccco1 (configuration not stated),"0.0112 µM [falling, full curve, poor fit]",–
Cc1cccc(NC(=O)c2cc(Cl)sc2Cl)c1C,"1.58 µM [falling, partial curve]",–
CCOC(=O)/C=C(/C)N1N=C(c2ccc(OC)cc2)CC1c1cccc([N+](=O)[O-])c1 (configuration not stated),–,"15.8 µM [rising, single point]"
Cc1ccc(S(=O)(=O)N(C)CC(=O)N2CCCc3ccccc32)cc1,"0.0794 µM [rising, full curve, poor fit]",–
Cc1cccc(N2CC(C(=O)OCc3ccc([N+](=O)[O-])cc3)CC2=O)c1 (configuration not stated),"15.8 µM [rising, partial curve, poor fit]",–
Cn1nc(-c2ccc(OCC(=O)Nc3ccccc3)cc2)c2ccccc2c1=O,–,"31.6 µM [rising, single point]"
Cc1ccc(OCC(=O)N/N=C/c2ccc([N+](=O)[O-])o2)cc1,–,"35.5 µM [rising, single point]"
O=C(NNC1=C(C(=O)C(F)(F)F)CCC1)c1cccc(Cl)c1,–,"17.8 µM [rising, single point]"
C#CCOc1c(Cl)cc(/C=N/NC(N)=S)cc1OCC,"0.0398 µM [falling, full curve]","0.0398 µM [falling, full curve]"
CCCN(C(=O)CSc1cc(-c2ccccc2)c2ccc(OC)cc2n1)C1CCS(=O)(=O)C1 (configuration not stated),"31.6 µM [rising, single point]","35.5 µM [rising, single point]"
CCC(C)/C(C)=N/NC(=O)C1COc2ccccc2O1 (configuration not stated),–,"10 µM [rising, partial curve]"
S=c1[nH]nc(CCc2ccccc2)n1Cc1ccccc1,"35.5 µM [falling, partial curve, poor fit]",–
